Results taken from publication PMC9521185.

Protein sequences, listed by entry. Tags and fused reporters are not part of them. Residues count along the entry.
UniProt P01267, 20-2769: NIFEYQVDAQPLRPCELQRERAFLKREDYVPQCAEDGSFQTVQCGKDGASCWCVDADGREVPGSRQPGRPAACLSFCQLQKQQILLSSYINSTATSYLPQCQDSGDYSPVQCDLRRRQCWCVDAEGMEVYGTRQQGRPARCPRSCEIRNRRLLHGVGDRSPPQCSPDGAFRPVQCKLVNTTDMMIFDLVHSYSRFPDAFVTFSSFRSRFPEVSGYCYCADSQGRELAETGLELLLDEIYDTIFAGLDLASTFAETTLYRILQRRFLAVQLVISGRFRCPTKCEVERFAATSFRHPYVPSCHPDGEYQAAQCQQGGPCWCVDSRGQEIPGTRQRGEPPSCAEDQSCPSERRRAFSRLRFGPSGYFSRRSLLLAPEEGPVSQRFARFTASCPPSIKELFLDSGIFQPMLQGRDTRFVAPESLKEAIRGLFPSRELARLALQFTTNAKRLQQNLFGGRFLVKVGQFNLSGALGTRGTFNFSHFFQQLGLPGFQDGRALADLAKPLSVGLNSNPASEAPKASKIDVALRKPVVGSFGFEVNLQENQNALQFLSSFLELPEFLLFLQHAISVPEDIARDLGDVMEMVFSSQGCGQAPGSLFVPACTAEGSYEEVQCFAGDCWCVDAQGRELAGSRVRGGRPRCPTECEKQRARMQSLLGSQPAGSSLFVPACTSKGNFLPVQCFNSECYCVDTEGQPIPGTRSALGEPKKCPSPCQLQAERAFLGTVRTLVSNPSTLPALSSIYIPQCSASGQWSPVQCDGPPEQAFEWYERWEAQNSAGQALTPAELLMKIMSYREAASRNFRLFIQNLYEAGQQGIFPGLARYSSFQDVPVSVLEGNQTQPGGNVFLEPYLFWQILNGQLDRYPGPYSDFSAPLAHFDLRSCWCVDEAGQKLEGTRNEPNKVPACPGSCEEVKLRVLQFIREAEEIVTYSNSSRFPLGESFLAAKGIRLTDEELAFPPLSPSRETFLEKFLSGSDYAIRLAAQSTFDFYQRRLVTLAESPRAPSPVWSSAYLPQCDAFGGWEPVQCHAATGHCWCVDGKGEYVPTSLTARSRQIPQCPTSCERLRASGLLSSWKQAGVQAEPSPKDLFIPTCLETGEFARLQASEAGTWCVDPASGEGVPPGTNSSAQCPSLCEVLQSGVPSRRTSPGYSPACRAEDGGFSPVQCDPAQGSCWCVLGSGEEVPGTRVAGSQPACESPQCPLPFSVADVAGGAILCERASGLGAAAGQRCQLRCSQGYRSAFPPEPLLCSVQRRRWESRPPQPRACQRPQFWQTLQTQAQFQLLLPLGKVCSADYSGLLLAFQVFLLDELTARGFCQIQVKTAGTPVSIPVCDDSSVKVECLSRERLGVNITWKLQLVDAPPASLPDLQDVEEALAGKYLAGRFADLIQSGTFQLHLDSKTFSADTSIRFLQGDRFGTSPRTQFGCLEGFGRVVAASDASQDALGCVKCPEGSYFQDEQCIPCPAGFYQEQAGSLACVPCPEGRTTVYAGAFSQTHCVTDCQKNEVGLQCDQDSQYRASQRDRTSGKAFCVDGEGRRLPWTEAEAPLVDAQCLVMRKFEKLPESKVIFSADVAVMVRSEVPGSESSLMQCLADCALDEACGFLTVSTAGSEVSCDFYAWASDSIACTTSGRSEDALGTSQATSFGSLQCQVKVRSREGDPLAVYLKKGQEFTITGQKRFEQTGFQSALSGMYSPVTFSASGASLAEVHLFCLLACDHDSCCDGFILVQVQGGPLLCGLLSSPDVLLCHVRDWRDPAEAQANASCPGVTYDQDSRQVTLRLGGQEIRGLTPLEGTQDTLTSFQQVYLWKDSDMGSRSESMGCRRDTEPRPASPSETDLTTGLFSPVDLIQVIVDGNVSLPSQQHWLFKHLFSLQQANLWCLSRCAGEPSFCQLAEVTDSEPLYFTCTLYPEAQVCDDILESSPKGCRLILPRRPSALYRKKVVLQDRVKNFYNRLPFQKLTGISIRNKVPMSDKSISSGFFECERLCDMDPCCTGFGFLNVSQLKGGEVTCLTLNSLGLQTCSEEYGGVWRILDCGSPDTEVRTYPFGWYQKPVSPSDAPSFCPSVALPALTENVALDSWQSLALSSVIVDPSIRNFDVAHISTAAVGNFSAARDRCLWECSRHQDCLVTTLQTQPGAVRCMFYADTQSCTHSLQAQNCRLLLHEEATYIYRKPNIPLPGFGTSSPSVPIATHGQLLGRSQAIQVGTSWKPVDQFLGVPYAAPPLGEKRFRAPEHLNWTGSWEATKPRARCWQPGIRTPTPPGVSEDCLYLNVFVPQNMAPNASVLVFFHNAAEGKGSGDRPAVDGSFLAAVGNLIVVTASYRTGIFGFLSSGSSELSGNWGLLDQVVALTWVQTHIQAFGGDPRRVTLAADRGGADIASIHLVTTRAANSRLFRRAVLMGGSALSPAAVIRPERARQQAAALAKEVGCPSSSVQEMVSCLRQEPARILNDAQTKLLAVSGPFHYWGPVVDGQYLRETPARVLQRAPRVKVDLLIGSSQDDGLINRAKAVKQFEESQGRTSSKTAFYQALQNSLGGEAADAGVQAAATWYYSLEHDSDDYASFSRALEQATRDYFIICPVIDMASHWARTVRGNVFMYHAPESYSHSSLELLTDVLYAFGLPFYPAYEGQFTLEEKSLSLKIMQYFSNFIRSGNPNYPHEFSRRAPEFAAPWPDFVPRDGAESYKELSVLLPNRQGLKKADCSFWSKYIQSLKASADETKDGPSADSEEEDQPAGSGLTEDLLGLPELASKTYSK
UniProt P02787, 20-698: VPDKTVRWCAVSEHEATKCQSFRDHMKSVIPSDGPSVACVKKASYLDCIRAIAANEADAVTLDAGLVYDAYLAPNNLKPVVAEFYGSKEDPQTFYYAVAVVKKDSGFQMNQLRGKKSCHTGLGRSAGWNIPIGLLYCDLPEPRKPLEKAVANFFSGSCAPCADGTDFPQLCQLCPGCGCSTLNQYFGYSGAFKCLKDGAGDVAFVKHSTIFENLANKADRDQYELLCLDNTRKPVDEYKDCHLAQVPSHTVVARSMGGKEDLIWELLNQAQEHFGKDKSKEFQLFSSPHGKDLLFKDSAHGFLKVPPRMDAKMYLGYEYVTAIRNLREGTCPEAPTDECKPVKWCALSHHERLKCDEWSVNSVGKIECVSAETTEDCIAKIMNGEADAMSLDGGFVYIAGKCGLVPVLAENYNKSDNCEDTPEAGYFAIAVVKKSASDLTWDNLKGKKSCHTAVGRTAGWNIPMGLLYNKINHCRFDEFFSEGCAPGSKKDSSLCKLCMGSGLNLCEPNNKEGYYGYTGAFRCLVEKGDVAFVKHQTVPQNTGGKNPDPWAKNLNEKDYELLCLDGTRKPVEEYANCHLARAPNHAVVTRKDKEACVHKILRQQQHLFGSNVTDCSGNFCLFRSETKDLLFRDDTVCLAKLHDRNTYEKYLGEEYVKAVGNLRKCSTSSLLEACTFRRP
UniProt P24627, 20-708: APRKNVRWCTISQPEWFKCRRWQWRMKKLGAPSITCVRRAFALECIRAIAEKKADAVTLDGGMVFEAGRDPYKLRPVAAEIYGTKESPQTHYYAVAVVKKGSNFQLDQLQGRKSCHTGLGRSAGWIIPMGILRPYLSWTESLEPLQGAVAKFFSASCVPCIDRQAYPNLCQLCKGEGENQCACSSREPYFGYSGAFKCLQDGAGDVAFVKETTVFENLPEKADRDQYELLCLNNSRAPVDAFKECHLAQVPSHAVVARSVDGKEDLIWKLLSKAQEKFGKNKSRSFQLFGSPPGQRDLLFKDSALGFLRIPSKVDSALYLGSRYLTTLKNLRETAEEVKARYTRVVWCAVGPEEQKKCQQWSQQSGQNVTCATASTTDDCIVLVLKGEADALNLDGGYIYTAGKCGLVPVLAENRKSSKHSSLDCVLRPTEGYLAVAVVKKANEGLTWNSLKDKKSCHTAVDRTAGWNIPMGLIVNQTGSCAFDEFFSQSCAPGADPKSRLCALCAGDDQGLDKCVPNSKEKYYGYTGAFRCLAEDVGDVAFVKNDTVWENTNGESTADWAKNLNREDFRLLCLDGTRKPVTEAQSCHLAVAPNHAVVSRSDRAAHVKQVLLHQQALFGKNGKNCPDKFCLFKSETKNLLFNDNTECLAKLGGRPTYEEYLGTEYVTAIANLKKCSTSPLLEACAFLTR

Key:
[1] = target: thyroglobulin (TG) (bovine) (UniProt P01267); experiment: PicoGreen dye-displacement fluorescence; details: fluorescence ex 485 nm / em 528 nm, microplate reader, commercial protein, label: none (label-free, PicoGreen intercalated), single-stranded DNA
[2] = target: transferrin (H-TF) (human) (UniProt P02787); experiment: PicoGreen dye-displacement fluorescence; details: fluorescence ex 485 nm / em 528 nm, microplate reader, commercial protein, label: none (label-free, PicoGreen intercalated), single-stranded DNA
[3] = target: lactoferrin (LF) (bovine (milk)) (UniProt P24627); experiment: CE-SELEX work of the cited paper; Kd method not stated here; details: fluorescence ex 485 nm / em 528 nm, microplate reader; commercial protein; label: none (label-free, PicoGreen intercalated); single-stranded DNA

“CCTAACCGATATCACACTCACCGCGTGAGCGGGGAGGCGATGCCCAGGCTAACTTGACTCAGTTGGTCGTCATTGGAGTATC [TG aptamer]”: binds [1].

“AGCAGCACAGAGGTCAGATGCGACTTGCCTATCGGCATGACACAATCTTTTGGAGCGTAACCTATGCGTGCTACCGTGAA [H-TF aptamer]”: binds [2].

For “TGGTGCTGCCCCTAGTCTCCGGCTGATAGCTGCTTCTTGG [LF aptamer]”, the pKd [3] was 7.68.

pKd: −log10 of the molar value. Construct, isoform or probe ends are uncertain for at least one entry. For part of these data: At least one verdict rests on a figure or table, not on a statement of the authors.
